Experimental data as given in PMC5437280.
No constants are given. Whether binding was seen depends on the method and setting. In cells and extracts the contact can be indirect. Binding can be weak; no strength is given. For some assays here: Sequences can lack the tags named with a protein.

Amino acid sequences for entries named in this document (tags omitted). A change or cut given only in a name is not applied to a line headed by its entry.
UniProt Q9LID3: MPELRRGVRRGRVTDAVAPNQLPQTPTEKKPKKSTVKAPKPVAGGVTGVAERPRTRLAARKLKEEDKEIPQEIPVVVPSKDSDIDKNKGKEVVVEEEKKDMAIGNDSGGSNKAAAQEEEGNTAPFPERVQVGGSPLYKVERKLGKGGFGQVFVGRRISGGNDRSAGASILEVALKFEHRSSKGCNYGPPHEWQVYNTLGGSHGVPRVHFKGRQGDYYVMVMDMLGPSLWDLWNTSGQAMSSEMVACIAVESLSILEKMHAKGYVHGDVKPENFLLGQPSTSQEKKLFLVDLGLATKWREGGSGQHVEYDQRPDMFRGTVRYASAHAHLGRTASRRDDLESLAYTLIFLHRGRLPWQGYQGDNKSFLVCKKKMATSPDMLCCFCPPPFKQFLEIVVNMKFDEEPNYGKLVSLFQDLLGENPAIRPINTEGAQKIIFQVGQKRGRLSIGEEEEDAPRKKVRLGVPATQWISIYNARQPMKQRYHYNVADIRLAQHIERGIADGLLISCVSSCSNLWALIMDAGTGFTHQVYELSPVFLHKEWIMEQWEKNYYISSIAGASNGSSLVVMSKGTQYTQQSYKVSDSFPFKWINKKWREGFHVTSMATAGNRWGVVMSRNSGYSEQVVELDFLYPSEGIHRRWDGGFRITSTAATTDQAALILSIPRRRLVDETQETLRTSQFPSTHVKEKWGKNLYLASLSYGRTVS
UniProt P14713: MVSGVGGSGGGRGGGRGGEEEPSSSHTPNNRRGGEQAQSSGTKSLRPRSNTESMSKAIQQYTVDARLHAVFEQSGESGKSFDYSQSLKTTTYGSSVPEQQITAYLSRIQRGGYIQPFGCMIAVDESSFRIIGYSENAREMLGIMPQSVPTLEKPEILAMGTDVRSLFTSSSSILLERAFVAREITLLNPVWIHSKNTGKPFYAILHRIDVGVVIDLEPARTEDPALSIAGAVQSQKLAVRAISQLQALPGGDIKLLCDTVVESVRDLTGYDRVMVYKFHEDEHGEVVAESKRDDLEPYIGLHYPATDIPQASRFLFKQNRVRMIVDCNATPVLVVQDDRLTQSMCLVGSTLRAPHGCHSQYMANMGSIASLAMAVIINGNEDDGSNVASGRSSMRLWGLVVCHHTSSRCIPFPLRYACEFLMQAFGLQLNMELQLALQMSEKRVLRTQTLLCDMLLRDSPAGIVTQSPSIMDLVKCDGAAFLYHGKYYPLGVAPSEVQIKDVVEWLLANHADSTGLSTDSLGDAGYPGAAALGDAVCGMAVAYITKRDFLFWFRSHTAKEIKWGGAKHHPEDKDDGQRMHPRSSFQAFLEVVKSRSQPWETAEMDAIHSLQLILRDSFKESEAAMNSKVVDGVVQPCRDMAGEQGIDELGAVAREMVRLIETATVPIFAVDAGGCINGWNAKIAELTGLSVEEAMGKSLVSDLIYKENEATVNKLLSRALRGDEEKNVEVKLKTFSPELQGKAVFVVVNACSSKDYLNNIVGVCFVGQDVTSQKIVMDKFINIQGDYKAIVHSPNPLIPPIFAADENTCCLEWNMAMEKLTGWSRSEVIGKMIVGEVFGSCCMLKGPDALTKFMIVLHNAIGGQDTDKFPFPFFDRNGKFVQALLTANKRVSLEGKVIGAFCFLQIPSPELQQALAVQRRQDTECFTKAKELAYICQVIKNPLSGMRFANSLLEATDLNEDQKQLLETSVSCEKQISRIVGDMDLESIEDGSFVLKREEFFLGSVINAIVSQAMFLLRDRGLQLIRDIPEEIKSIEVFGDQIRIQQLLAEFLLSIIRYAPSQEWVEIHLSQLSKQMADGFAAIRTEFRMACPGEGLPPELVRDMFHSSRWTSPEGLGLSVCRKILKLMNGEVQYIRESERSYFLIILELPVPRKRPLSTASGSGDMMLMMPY

Legend:
[1] = molecular target: T1, PIF3:MYC (in vitro synthesized) (Arabidopsis) (UniProt O80536); test: co-IP; proteins synthesized in HeLa cell lysate, co-expressed or mixed 1 h at room temperature, diluted in PBS with 0.1% NP-40; bait captured with anti-MYC antibodies and protein G beads
T1 sequence: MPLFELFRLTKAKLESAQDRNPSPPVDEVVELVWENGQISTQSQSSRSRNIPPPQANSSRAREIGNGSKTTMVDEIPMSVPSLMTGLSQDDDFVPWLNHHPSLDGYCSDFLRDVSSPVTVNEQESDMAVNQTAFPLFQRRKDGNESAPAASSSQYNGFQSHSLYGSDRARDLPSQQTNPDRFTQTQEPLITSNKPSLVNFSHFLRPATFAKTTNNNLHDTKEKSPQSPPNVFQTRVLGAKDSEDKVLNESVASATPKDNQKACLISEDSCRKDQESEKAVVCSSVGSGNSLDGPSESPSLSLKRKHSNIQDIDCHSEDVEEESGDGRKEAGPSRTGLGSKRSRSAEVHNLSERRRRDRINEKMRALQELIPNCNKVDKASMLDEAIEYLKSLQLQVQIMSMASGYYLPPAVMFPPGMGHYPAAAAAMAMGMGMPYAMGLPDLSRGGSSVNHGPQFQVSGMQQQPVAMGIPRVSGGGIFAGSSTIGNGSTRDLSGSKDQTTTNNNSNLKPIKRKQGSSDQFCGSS

PPK1:CFP (Arabidopsis) = PPK1:CFP (Arabidopsis) (UniProt Q9LID3); test: co-IP; extracts of dark (Dk) or red-light-pulse (Rp) treated transgenic seedlings; PPK1:CFP bait precipitated with anti-GFP antibodies and protein A agarose, MOPS buffer pH 7.6, 150 mM NaCl, 4 °C; blots with anti-MYC, anti-phyB, anti-GFP

Row | binding [1] | binding (PPK1:CFP (Arabidopsis)) | Substance
1 | binds |  | PPK1 used as prey (in vitro synthesized) (Arabidopsis) (enzyme)
2 |  | binds | phytochrome B (endogenous phyB) (from UniProt P14713 1-1172) (receptor)
